Laboratory results taken from publication PMC3525568, “The Natively Disordered Loop of Bcl-2 Undergoes Phosphorylation-Dependent Conformational Change and Interacts with Pin1” (PLoS ONE, 2012).

Assay: NMR structure determination of peptides
Settings: 20 mM phosphate pH 6.5, 25°C; for NMR structure of peptide (conformation): TOCSY/ROESY, XPLOR-NIH, 10 lowest energy structures

Substance	secondary structure by chemical shift index (Hα)	NMR structure of peptide (conformation)
GPALSPVPPV [S87, synthetic peptide derived from the Bcl-2 loop covering S87]	no secondary structure present	not a completely extended structure
PLQpTPAAPGA [pT74, phosphorylated T74 Bcl-2 loop peptide]	–	became curved
QPGHpTPHPAA [pT56, phosphorylated T56 Bcl-2 loop peptide]	–	became curved
